Measurements taken from paper PMC5192218.
These are yes or no findings as the source states them, for the method shown. Binding seen in cells or lysates may run through a third protein. A yes stands for co-enrichment or nearness to the bait. Other partners may have been found.

Protein sequences, listed by entry. Tags and fused reporters are not part of them.
UniProt Q9QUI0: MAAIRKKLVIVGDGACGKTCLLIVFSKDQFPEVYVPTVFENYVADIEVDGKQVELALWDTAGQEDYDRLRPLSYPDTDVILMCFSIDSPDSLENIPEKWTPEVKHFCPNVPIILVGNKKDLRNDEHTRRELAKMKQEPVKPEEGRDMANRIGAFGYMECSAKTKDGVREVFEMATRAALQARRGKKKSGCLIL

Molecular target: T1, p120-catenin (endogenous, mILC-1 cells) (mouse (endogenous in mILC-1)) (UniProt P30999)
T1 sequence: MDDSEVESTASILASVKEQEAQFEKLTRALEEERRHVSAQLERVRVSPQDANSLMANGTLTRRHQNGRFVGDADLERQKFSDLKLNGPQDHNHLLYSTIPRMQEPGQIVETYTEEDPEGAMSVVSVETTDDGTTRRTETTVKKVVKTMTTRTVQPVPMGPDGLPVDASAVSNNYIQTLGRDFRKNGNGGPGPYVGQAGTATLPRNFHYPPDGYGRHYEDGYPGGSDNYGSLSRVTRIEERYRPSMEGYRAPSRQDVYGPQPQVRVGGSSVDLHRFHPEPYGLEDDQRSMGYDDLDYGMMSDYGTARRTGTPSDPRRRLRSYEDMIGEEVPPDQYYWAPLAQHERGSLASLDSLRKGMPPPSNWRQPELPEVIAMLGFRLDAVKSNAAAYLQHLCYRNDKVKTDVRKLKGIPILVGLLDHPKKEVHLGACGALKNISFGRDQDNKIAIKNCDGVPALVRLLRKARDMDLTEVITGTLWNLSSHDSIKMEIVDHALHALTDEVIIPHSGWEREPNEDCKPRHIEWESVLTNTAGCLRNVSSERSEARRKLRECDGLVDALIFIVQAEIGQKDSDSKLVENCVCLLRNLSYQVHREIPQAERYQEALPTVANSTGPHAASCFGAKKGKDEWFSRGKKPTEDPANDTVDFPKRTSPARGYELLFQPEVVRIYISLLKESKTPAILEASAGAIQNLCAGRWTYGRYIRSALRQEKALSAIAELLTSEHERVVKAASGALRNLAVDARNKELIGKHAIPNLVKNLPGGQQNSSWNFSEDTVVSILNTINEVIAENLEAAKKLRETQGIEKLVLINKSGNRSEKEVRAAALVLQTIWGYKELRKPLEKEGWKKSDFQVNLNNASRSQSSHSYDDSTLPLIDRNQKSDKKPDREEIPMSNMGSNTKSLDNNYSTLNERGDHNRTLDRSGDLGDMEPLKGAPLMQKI
Experiment: affinity purification with mass spectrometry; p120 immunoprecipitation from mILC-1 lysates, gel bands analysed by LC-tandem MS, Mascot search of the IPI mouse database

Molecule	binding
RhoA (endogenous, mILC-1 cells) (from UniProt Q9QUI0 1-193)	binds
mitotic kinesin-like protein 1 (endogenous, mILC-1 cells) (protein, UniProt E9Q5G3 1-953) MKSAKAKTVRKPVIKKGSQTNLKDPVGVYCRVRPLSFPDQECCVEVINSTTLQLHTPEGYRLNRNGDYKETQYSFKRVFGTHTTQKELFDVVANPLVDDLIHGKNGLLFTYGVTGSGKTYTMTGSPGSGGLLPRCLNMIFNSIGSFQAKRYVFKSNDRNSMEIQCEVDALLERQKREALPIPKTPSSKRQADPEFADMINVQEFCKAEEVDEDSVYGVFVSYIEIYNNYIYDLLEEVQFDPIKPKLPQSKTLREDKNHNMYVAGCTEVEVKSTEEAFEVFWRGQKKRRIANTHLNRESSRSHSVFSIKLVQAPLDADGDNVLQEKEQITISQLSLVDLAGSERTNRTKAEGNRLREAGNINQSLMTLRTCMEVLRENQTYGTNKMVPYRDSKLTHLFKNYFDGEGKVRMIVCVNPKAEDYEESLQVMRFAEVTQEVEVARPVDKVICGLTPGRRYRNLPRGGPVGDEPLVPEVILQSFPPLPPCKLLDINDEETLPKLADTLEKRHHLRQLMTEDLNKKCLAFKALLKEFDNSLSNKENYVQEKLNEREKVISGQKLEIERLEKKNKTLEYKIEILEKTTTIYEEDKRNLQQELESQNQKLQRQFSDKRRLEARLQGMVTETSMKWQKECERRVAATQLEMQNKLWVKDEKLKQLKAIVTEPKPEKPERPSRERDREKIIPRSVSPSPLPLSSNNIAQISNGQQLMSQPQLHRRSNSCSSISVASCISEWEQKLSPFSTPVNVTSLARHRQQEPGQSKTCIVSDRRRGMCWTEGREMVPTFSSEIGVEEDHCRRNTPIPVRHRRSRSAGSRWVDHKPASNVQTETVMQPHVPHAITVSVANEKALAKCEKYMLTHQELASDGEIQTKVIKGDVYKTRGGGQSVQFTDIETLKQELPTGSRKRRSSTLAPAQPDGTESEWTDVETRCSVAVEMRAGSQLGPGYQHHAQPKRKKP	binds
ARHGAP11A (MP-GAP) (endogenous, mILC-1 cells) (protein, UniProt Q80Y19 1-987) MWDQRLVRLALLQQLRAVYGIKVKGGRGQCDRRRHETAATEIKGKVFGVPFNSLPHSVVPEFGHIPSFLVDACASLKEHIHTEGLFRKSGSVVRLKALKSKLDQGEACLSSALPCDVAGLLKQFFRELPEPVLPADLHEALFKAQQLGAEERNKATLLLSCLMANPTVDILRYFFNFLKSVSLRASENKMDSSNLAVIFAPNLLQTSEGHEKMSANTEKKLRLQAAVVQTFIDCASDIGRVPDFILEKIPAMLGIDGLCTTPSLEGFEGDFETPGECKRKRRQSVGDFVNGALNKLKSSRTPSITPQQDRTAQASASPLILTPSVKRKLPGESSHAFSSKKRKSIKHNLNFELLPSHFFSSNSTPVSVHLDTSPDGSSQTSLSPIAMSGNHLVSTELRRSKRIASKKVYRVESGKAGCFSPKVSRKEKTRRSLRLKFSLGKNRDSDGCSVINRYENVGRRLANQQNLKSRIDSVKTGLLFSPDIDERLLKKGSEKISKSEEHLLTPDQLDGTGYRMSWTEPSNSSFQDMSANGTSPIMQNLEVKSFSLEPDITVEKSPVVSCELRPSTFHSQPDSSVLSLSGDEGNLASETLQKIQKAFSESGSDLHMVINHEQSSVTNTGEEVEFRDVTVTESKGHDGSCAGEEENCPSERNFSPDQSPEFAREADEECYSTQMKVECEGLHSETPKADPLILQAFPGEEPAEEPQSPRNQLSTPSRGNENGGESAGASGAPGEDESTCSVAVLSKPRPQRLSRQQSLVEKCDSVAPGALQVTEHGKVSDHIQWFNKLSLNEPNRGKVKSPLKFQRTPVRQSVRRINSLLEYGRQPVRQKLAIFGDAASPLVKSVSCDSALPSCVQNTSKGPTAPLITSGLEAQKSTSCNKSSVELTSKSFTKMKRHPDPLSASLGTPRLCKQENKSNGHIKFPLDDLTNHERLKFVVNNNVAFSPGMKNRVVRKPSEKERVWYKGSPKNPIGKTQLLPTSKPVDL	binds
Anillin (endogenous, mILC-1 cells) (protein, UniProt Q8K298 1-1121) MDPFTEKLLERTRARRENLQRKMAERPTAVARSAPHAKRGREPLSEASNQQQPLPGGEEKSCTKPSPSKKRCSDKIEVGAPDLENTEPIDVAKPCSPMPAPRQAKPPAPAAISESVAAPAALLSADRGLNSGSEASATSSVKTRMQRLAEQRRHWDSDLTDDVSESSYFAPVPTEDKAASPSKPPISNASATPVGRRGRLANLAATICSWEDDVSHSSAKQNSVQEQPGTACLSKSSSASGASASINSSSVQQEATCCSPRDGNASVRKDPSSNAAHGPLLSASVSSSVKASSPVTAATFITENREAQNPELLHKTASPLKTEARKPCEKPTLSQGAQPKEEANREVCLQSQSKDKLATPGGRGIKPFLERFGERCQEHSKESPSYRASHKTPNITPNTKAIQERLFKQNTCSSTTHLAQQLKQEREKELACLRGRLDKGNLWSAEKNEKSRSKHLETKQEVHCQNTPLKKHQTVASTPLTSVTDKVAENEPAVKLSSTEPAGSTESEMTKSSPLKITLFLEEEKSLKVASDLEVEQNTEAVREVEMSVDDEDINSSRVINDIFSDVLEEGELDVEKSQEEMDQVGAENSEEQEDALNISSMSLLAPLAQTVGVVSLENVISSPPSELRDSNLSAASPKPGKFQRTRVPRAESADSLGSEDRDLLYSIDAYRSQRFKETERPSIKQVIVRKEDVTSKLGEKKNVFSGQVNIKQKMQELNNDINLQQTVIYQASQALNCCVDEEHGKGSLEEAEAERLLLIATEKRALLIDELNKLKSEGPQRRNKTSVISQSEFAPSKGSVTLSEICLPLKADFVCSTAQKTDASNYYYLIMLKAGAEQMVATPLASTANSLSGDALTFPTTFTLHDVSNDFEINIEVYSLVQKKDSLGPDKKKKASKSKAITPKRLLTSITSKSSLHSSVMASPGGLGAVRTSNFTLVGSHTLSLSSVGDTKFALDKVPFLSPLEGHICLKISCQVNSAVEEKGFLTIFEDVSGFGAWHRRWCVLSGNCISYWTYPDDERRKNPIGRINLANCISHQIEPANREFCARRNTLELITVRPQREDDRETLVSQCRDTLCVTKNWLSADTKEERDLWMQKLNQVIVDIRLWQPDACYKPVGKP	binds
